Data source: PubChem BioAssay AID504774 (Drosophila RNAi Screening Center, 2011)
In all, the deposit lists about 23,000 reagents; below is a random part of those with a known target gene and a result. 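Values are quantile-normalised luminescence on an arbitrary scale; higher means more cells surviving MMS.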 Names joined by + are all predicted targets of the reagent.

Aim: 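Fly genes whose loss alters survival after alkylation damage to DNA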 (primary screen)
System: Drosophila Kc167 cells
Knock-down reagent: long dsRNA against Drosophila genes, about 0.25 µg dsRNA per well
Timing: about 6 days: 3 days knock-down, then 3 days with or without MMS
Conditions: methyl methanesulphonate 0.004% (w/v) for 3 days after knock-down
Detection: 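Viability in wells given MMS, read as ATP luminescence, normalised by quantiles plate by plate and averaged across replicates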
Scale: mean viability with MMS and viability with MMS: higher = more surviving cells after MMS

target	dsRNA	mean viability with MMS	viability with MMS, replicate 1	viability with MMS, replicate 2
CG3124	DRSC04339	2.80e6	3.43e6	3.41e6
CG3124	DRSC23062	3.55e6	3.99e6	4.09e6
lqf	DRSC11363	3.59e6	4.19e6	3.95e6
Alp4	DRSC14116	3.55e6	3.99e6	4.05e6
Gdh	DRSC16679	3.55e6	3.96e6	4.09e6
CG11585	DRSC19410	3.81e6	4.26e6	4.21e6
CG11191	DRSC06056	3.43e6	3.84e6	3.91e6
CG11191	DRSC23224	3.70e6	4.28e6	4.12e6
Ucp4C	DRSC03132	3.61e6	4.07e6	4.09e6
CG5644	DRSC10531	3.44e6	3.86e6	3.95e6
Tret1-2	DRSC07117	3.58e6	4.02e6	4.10e6
wun2	DRSC07566	3.68e6	4.12e6	4.13e6
Lnk	DRSC16729	3.60e6	4.12e6	4.03e6
MFS9	DRSC15560	3.73e6	4.22e6	4.17e6
CG13693	DRSC00362	3.43e6	3.96e6	3.78e6
inaF-B + inaF-D + inaF-C + 1 more	DRSC20342	3.46e6	3.93e6	3.91e6
CR9337	DRSC03212	3.41e6	3.78e6	3.61e6
CG14273	DRSC02377	3.60e6	4.01e6	4.15e6
FoxL1	DRSC08717	3.37e6	3.99e6	3.68e6
CG2444	DRSC19846	3.62e6	4.03e6	4.16e6
gsb	DRSC04692	3.59e6	4.09e6	4.07e6
Task7	DRSC16477	3.63e6	4.08e6	4.09e6
Decay	DRSC16930	3.19e6	3.67e6	3.56e6
CG17110	DRSC15173	3.71e6	4.15e6	4.26e6
mRpL17	DRSC08350	3.55e6	4.00e6	4.03e6
CG2906	DRSC06841	3.63e6	4.17e6	4.00e6
wg	DRSC03636	3.48e6	3.81e6	4.07e6
CG30378	DRSC05071	3.42e6	3.97e6	3.74e6
CG4497	DRSC02754	3.62e6	4.06e6	4.18e6
CG15019	DRSC08473	3.44e6	3.81e6	3.99e6
Rad51D	DRSC06840	3.66e6	4.09e6	4.12e6
CG5498	DRSC11608	3.60e6	4.06e6	4.11e6
CG33140	DRSC06030	3.64e6	4.13e6	4.10e6
CG8854	DRSC07288	3.57e6	4.10e6	4.01e6
CG1677	DRSC18116	3.19e6	3.64e6	3.55e6
EMC5	DRSC02469	3.67e6	4.18e6	4.12e6
CG14818	DRSC18548	3.57e6	4.08e6	4.02e6
Dph1	DRSC09851	3.57e6	4.08e6	4.03e6
CG31191	DRSC13455	3.60e6	4.00e6	4.15e6
CG31191	DRSC15214	3.55e6	3.92e6	4.14e6
CG31191	DRSC15215	3.24e6	3.77e6	3.67e6
CG18281	DRSC11742	3.67e6	4.02e6	4.27e6
CG7806	DRSC03071	3.75e6	4.12e6	4.45e6
CG10822	DRSC06005	3.48e6	3.90e6	3.98e6
Tim13	DRSC09848	3.73e6	4.17e6	4.22e6
CG10104	DRSC05964	3.54e6	3.95e6	4.12e6
Oga	DRSC15901	3.64e6	4.21e6	4.01e6
CG33060	DRSC09939	3.68e6	4.13e6	4.17e6
ppk25	DRSC04973	3.65e6	4.11e6	4.09e6
CG14340	DRSC00370	3.59e6	4.06e6	4.10e6
CG3502	DRSC04381	3.79e6	4.34e6	4.21e6
CG6041	DRSC18396	3.83e6	4.68e6	4.04e6
Fim	DRSC20243	3.65e6	4.25e6	4.07e6
nompC	DRSC03581	3.46e6	4.06e6	3.79e6
Cog4	DRSC03057	3.40e6	3.77e6	3.87e6
Upf1	DRSC19667	3.52e6	3.88e6	4.07e6
CG14069	DRSC02372	3.83e6	4.18e6	4.56e6
CG13465	DRSC10011	3.70e6	4.17e6	4.15e6
tna	DRSC09053	3.51e6	3.94e6	4.03e6
tna	DRSC10937	3.34e6	3.68e6	3.82e6
tna	DRSC23236	3.65e6	4.09e6	4.19e6
CG31482	DRSC12582	3.57e6	4.05e6	4.05e6
dos	DRSC07992	3.07e6	3.63e6	3.54e6
dos	DRSC08713	3.47e6	3.92e6	3.95e6
dos	DRSC23285	2.66e6	2.72e6	3.08e6
CG15719	DRSC19685	3.68e6	4.11e6	4.18e6
l(3)72Dn	DRSC10468	3.46e6	3.91e6	3.92e6
Cpr67Fa1	DRSC10932	3.71e6	4.12e6	4.24e6

Records above whose gene name begins with T or t:
target	dsRNA	mean viability with MMS	viability with MMS, replicate 1	viability with MMS, replicate 2
Tret1-2	DRSC07117	3.58e6	4.02e6	4.10e6
Task7	DRSC16477	3.63e6	4.08e6	4.09e6
Tim13	DRSC09848	3.73e6	4.17e6	4.22e6
tna	DRSC09053	3.51e6	3.94e6	4.03e6
tna	DRSC10937	3.34e6	3.68e6	3.82e6
tna	DRSC23236	3.65e6	4.09e6	4.19e6
